Measured values reported in PubChem BioAssay AID256 (DTP/NCI, 2004).
The list shows only some results of the screen, not a fair sample: its compounds were picked by chemical class. Not every dose and run of a compound is shown. T/C gives the treated animals as a percentage of the vehicle group. Some doses have a count of surviving animals in place of a T/C: the source holds a T/C of zero for them, seemingly a mark for toxic or unscored doses. Some survivor counts are full or nearly so, which does not show that the dose was tolerated: survival well below the control is almost never listed, so the zero probably covers shortened survival too. Survivors were counted at the toxicity check, usually on the fifth day, unless a day is given; later deaths do not show. Schedule codes are those of the source, read here as Q, the interval in days (D) or hours (H), X, the number of doses. Where survival is the endpoint, this PubChem deposit counts one and a half times the control or more as active, and values a quarter to a half above the control carry no call in these data; other NCI protocols may use other cut-offs. Some entries hold several experiments; the values are given in rising order. Some T/C values are marked as having no survivor count here; that says nothing about deaths at the dose. Some T/C values carry the count of animals alive at the toxicity check (mostly the fifth day); where neither a count nor a note follows, no animal had died by that day.

System: CD2F1 mice, L1210 leukemia ip, survival T/C
Assay: NCI In Vivo Anticancer Drug Screen. Data for tumor model L1210 Leukemia (intraperitoneal) in CD2F1 (CDF1) mice
Conditions: T/C endpoint: mean survival time, higher T/C = longer survival
Outline: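 Mice carrying a transplanted tumor received test compound or vehicle alone. The value is the measurement in the treated group divided by that in the vehicle-treated control group.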

[1] = dose: 50.0 mg/kg/injection, schedule: Q01DX009 (ip), vehicle: saline with Tween-80
[2] = dose: 100.0 mg/kg/injection, schedule: Q01DX009 (ip), vehicle: saline with Tween-80
[3] = dose: 100.0 mg/kg/injection, schedule: Q04DX003 (ip), vehicle: saline with Tween-80
[4] = dose: 200.0 mg/kg/injection, schedule: Q04DX003 (ip), vehicle: saline with Tween-80
[5] = dose: 400.0 mg/kg/injection, schedule: Q04DX003 (ip), vehicle: saline with Tween-80
[6] = dose: 50.0 mg/kg/injection, schedule: Q01DX009 (ip), vehicle: Klucel (hydroxypropylcellulose) (HPC)
[7] = dose: 100.0 mg/kg/injection, schedule: Q01DX009 (ip), vehicle: Klucel (hydroxypropylcellulose) (HPC)
[8] = dose: 200.0 mg/kg/injection, schedule: Q01DX009 (ip), vehicle: Klucel (hydroxypropylcellulose) (HPC)
[9] = dose: 200.0 mg/kg/injection, schedule: Q01DX009 (ip), vehicle: saline with Tween-80
[10] = dose: 400.0 mg/kg/injection, schedule: Q01DX009 (ip), vehicle: saline with Tween-80

## CCCCCN=C(N)C(N)=NCCCCC
dose: 25.0 mg/kg/injection, schedule: Q04DX002 (ip), vehicle: saline with Tween-80
  T/C: 102 % of control
dose: 50.0 mg/kg/injection, schedule: Q04DX002 (ip), vehicle: saline with Tween-80
  T/C: 95 % of control
dose: 100.0 mg/kg/injection, schedule: Q04DX002 (ip), vehicle: saline with Tween-80
  T/C: 98 % of control
dose: 200.0 mg/kg/injection, schedule: Q04DX002 (ip), vehicle: saline with Tween-80
  T/C: 93 % of control [2 of 3 alive]

## [N-]=[N+]=NS(=O)(=O)c1ccc([N+](=O)[O-])cc1
dose: 100.0 mg/kg/injection, schedule: Q04DX002 (ip), vehicle: Klucel (hydroxypropylcellulose) (HPC)
  T/C: 96 % of control
dose: 200.0 mg/kg/injection, schedule: Q04DX002 (ip), vehicle: Klucel (hydroxypropylcellulose) (HPC)
  T/C: 100 % of control [2 of 3 alive]
dose: 400.0 mg/kg/injection, schedule: Q04DX002 (ip), vehicle: Klucel (hydroxypropylcellulose) (HPC)
  T/C: 96 % of control

## NC(=O)CCCc1ccc(N(CCCl)CCCl)cc1
dose: 8.3 mg/kg/injection, schedule: Q01DX009 (ip), vehicle: saline
  T/C: 111 % of control
dose: 12.5 mg/kg/injection, schedule: Q01DX009 (ip), vehicle: saline
  T/C: 127 % of control
dose: 18.8 mg/kg/injection, schedule: Q01DX009 (ip), vehicle: saline
  T/C: 132 % of control
dose: 28.2 mg/kg/injection, schedule: Q01DX009 (ip), vehicle: saline
  T/C: 142 % of control

## CC(Cl)CSc1ccccc1 (centres undefined)
[1]
  T/C: 106 % of control
[2]
  T/C: 118 % of control

## CCCCCCCCCCCCOP(=O)(CCC)OCCCCCCCCCCCC
[3]
  T/C: 91 % of control [survivor count not shown]
[4]
  T/C: 111 % of control [survivor count not shown]
[5]
  T/C: 91 % of control [survivor count not shown]

## COc1ccc(N(CCCl)CCCl)cc1OC
dose: 6.25 mg/kg/injection, schedule: Q01DX009 (ip), vehicle: Klucel (hydroxypropylcellulose) (HPC)
  T/C: 107 % of control
dose: 12.5 mg/kg/injection, schedule: Q01DX009 (ip), vehicle: Klucel (hydroxypropylcellulose) (HPC)
  T/C: 110 % of control
dose: 25.0 mg/kg/injection, schedule: Q01DX009 (ip), vehicle: Klucel (hydroxypropylcellulose) (HPC)
  T/C: 107 % of control
[6]
  T/C: 113 % of control
[7]
  survivor count: 8 of 8
[8]
  survivor count: 1 of 8

## COc1ccc2ncccc2c1.O=[N+]([O-])c1cc([N+](=O)[O-])c(O)c([N+](=O)[O-])c1
[2]
  T/C: 103 % of control [survivor count not shown]
[9]
  T/C: 98 % of control [survivor count not shown]

## CCCCO[P+](=O)OCCCC
[2]
  T/C: 95 % of control
[9]
  T/C: 97 % of control
[10]
  survivor count: 3 of 6

## O=C(CF)Nc1ccc(N(CCCl)CCCl)cc1
dose: 10.0 mg/kg/injection, schedule: Q04DX003 (ip), vehicle: Klucel (hydroxypropylcellulose) (HPC)
  T/C: 117 and 119 % of control
dose: 20.0 mg/kg/injection, schedule: Q04DX003 (ip), vehicle: Klucel (hydroxypropylcellulose) (HPC)
  T/C: 127 and 143 % of control
dose: 40.0 mg/kg/injection, schedule: Q04DX003 (ip), vehicle: Klucel (hydroxypropylcellulose) (HPC)
  T/C: 139 [5 of 6 alive] and 140 % of control [5 of 6 alive]
dose: 100.0 mg/kg/injection, schedule: Q04DX003 (ip), vehicle: Klucel (hydroxypropylcellulose) (HPC)
  survivor count: 0 of 6
dose: 200.0 mg/kg/injection, schedule: Q04DX003 (ip), vehicle: Klucel (hydroxypropylcellulose) (HPC)
  survivor count: 0 of 6
dose: 400.0 mg/kg/injection, schedule: Q04DX003 (ip), vehicle: Klucel (hydroxypropylcellulose) (HPC)
  survivor count: 0 of 6

## CSc1ncc(COP(=S)(Cl)Cl)c(N)n1
dose: 100.0 mg/kg/injection, schedule: Q01DX001 (ip), vehicle: saline
  T/C: 98 % of control
dose: 200.0 mg/kg/injection, schedule: Q01DX001 (ip), vehicle: saline
  survivor count: 2 of 6
dose: 400.0 mg/kg/injection, schedule: Q01DX001 (ip), vehicle: saline
  survivor count: 0 of 6

## S=P(Cl)(Cl)N1CCCCCC1
[3]
  T/C: 104 % of control
[4]
  T/C: 96 % of control
[5]
  survivor count: 0 of 6

## NP(=O)(Oc1ccc([N+](=O)[O-])cc1)N(CCCl)CCCl (centres undefined)
dose: 62.5 mg/kg/injection, schedule: Q01DX001 (ip), vehicle: other
  T/C: 102 % of control
dose: 125.0 mg/kg/injection, schedule: Q01DX001 (ip), vehicle: other
  T/C: 94 % of control [5 of 6 alive]
dose: 250.0 mg/kg/injection, schedule: Q01DX001 (ip), vehicle: other
  T/C: 98 % of control [5 of 6 alive]
dose: 500.0 mg/kg/injection, schedule: Q01DX001 (ip), vehicle: other
  survivor count: 0 of 6

## CCCCC(CC)CO[P+](=O)OCC(CC)CCCC (centres undefined)
[1]
  T/C: 101 % of control
[2]
  T/C: 90 % of control
[9]
  survivor count: 1 of 6

## O=C(c1ccncc1)N(CCCl)CCCl
[6]
  T/C: 105 % of control
[7]
  T/C: 96 % of control
[8]
  T/C: 86 % of control

## Cn1cc(N(CCCl)CCCl)c(=O)[nH]c1=O
dose: 2.73 mg/kg/injection, schedule: Q04DX003 (ip), vehicle: other
  T/C: 146 % of control
dose: 4.15 mg/kg/injection, schedule: Q04DX003 (ip), vehicle: other
  T/C: 151 % of control
dose: 6.22 mg/kg/injection, schedule: Q04DX003 (ip), vehicle: other
  T/C: 89 % of control

## CCN(CC)CCOC(=O)C(O)(c1cccc(C)c1)c1csc2ccccc12 (centres undefined)
dose: 75.0 mg/kg/injection, schedule: Q01DX001 (ip), vehicle: saline
  T/C: 101 % of control
dose: 150.0 mg/kg/injection, schedule: Q01DX001 (ip), vehicle: saline
  T/C: 97 % of control

## CCCCOP(OCCCC)OCCCC
[2]
  T/C: 97 % of control
[9]
  T/C: 94 % of control
[10]
  survivor count: 4 of 6

## C#CCCOP(N)(=O)N(CCCl)CCCl (centres undefined)
dose: 15.63 mg/kg/injection, schedule: Q01DX001 (ip), vehicle: DMSO
  T/C: 98 % of control
dose: 31.25 mg/kg/injection, schedule: Q01DX001 (ip), vehicle: DMSO
  T/C: 104 % of control
dose: 62.5 mg/kg/injection, schedule: Q01DX001 (ip), vehicle: DMSO
  T/C: 98 % of control
dose: 125.0 mg/kg/injection, schedule: Q01DX001 (ip), vehicle: DMSO
  T/C: 97 % of control
dose: 250.0 mg/kg/injection, schedule: Q01DX001 (ip), vehicle: DMSO
  T/C: 92 % of control
dose: 500.0 mg/kg/injection, schedule: Q01DX001 (ip), vehicle: DMSO
  T/C: 105 % of control [5 of 6 alive]
dose: 1000.0 mg/kg/injection, schedule: Q01DX001 (ip), vehicle: DMSO
  survivor count: 0 of 6

## O=C(OC1CN2CCC1CC2)c1ccc(O)cc1 (centres undefined)
dose: 6.25 mg/kg/injection, schedule: Q01DX009 (ip), vehicle: saline with Tween-80
  T/C: 101 % of control
dose: 12.5 mg/kg/injection, schedule: Q01DX009 (ip), vehicle: saline with Tween-80
  T/C: 99 % of control
dose: 25.0 mg/kg/injection, schedule: Q01DX009 (ip), vehicle: saline with Tween-80
  T/C: 100 % of control
[3]
  survivor count: 2 of 6
[4]
  survivor count: 0 of 6
[5]
  survivor count: 0 of 6

## Cc1cccc(Nc2c([N+](=O)[O-])cc([N+](=O)[O-])cc2[N+](=O)[O-])c1
[3]
  T/C: 97 % of control
[4]
  T/C: 100 % of control
[5]
  T/C: 91 % of control

## CNc1c([N+](=O)[O-])cc([N+](=O)[O-])cc1[N+](=O)[O-]
dose: 100.0 mg/kg/injection, schedule: Q01DX001 (ip), vehicle: Klucel (hydroxypropylcellulose) (HPC)
  T/C: 101 % of control [survivor count not shown]
dose: 200.0 mg/kg/injection, schedule: Q01DX001 (ip), vehicle: Klucel (hydroxypropylcellulose) (HPC)
  T/C: 112 % of control [survivor count not shown]
dose: 400.0 mg/kg/injection, schedule: Q01DX001 (ip), vehicle: Klucel (hydroxypropylcellulose) (HPC)
  T/C: 108 % of control [survivor count not shown]

## O=[N+]([O-])c1ccc(SSc2ccc([N+](=O)[O-])cc2[N+](=O)[O-])c([N+](=O)[O-])c1
[2]
  T/C: 94 % of control
[9]
  T/C: 93 % of control
[10]
  T/C: 93 % of control
